# Values joined by “and” are separate entries in the source; they are usually repeats but may differ in a detail not shown here. Equal entries are not always repeated. Structures can show the parent of a compound that is named as a salt. ± gives the standard deviation of the averaged measurements. Some of the results follow. Repeats are few or missing, and single values can be far off.
# Test system: RAW 264.7
# Test: HMGB1-induced TNF-alpha production relative to HMGB1-stimulated control; higher = more TNF-alpha secretion (less inhibition)
# Details: stimulus: HMGB1 5 ug/ml, 18 h
# [1] = compound concentration: 1 ug/ml
SMILES,HMGB1-induced TNF-alpha production (compound concentration: 3 uM),HMGB1-induced TNF-alpha production [1] [%]
COc1cc(Cc2cnc(N)nc2N)cc(OC)c1OC [Trimethoprim],80.2 ± 5.6%,–
COc1cc(Cc2cnc(N)nc2N)cc(OC)c1OC,89.9%,–
CC(C)(C)OC(=O)c1cc2cc3c4c(c2oc1=O)CCCN4CCC3 [Coumarin 338],–,89.4
O=C(CCCN1CCC(O)(c2ccc(Br)cc2)CC1)c1ccc(F)cc1,72.5%,–
O=C(CCCN1CCC(O)(c2ccc(Br)cc2)CC1)c1ccc(F)cc1 [Bromperidol],45.1%,–
CNCC[C@H](Oc1cccc2ccccc12)c1cccs1,86.2% and 109%,–
CNCC[C@H](Oc1cccc2ccccc12)c1cccs1 [Duloxetine],100%,–
CC1CCC(C(C)C)C(O)C1 (stereo not drawn),117%,–
"CCc1cc(=O)oc2cc(OC)c(OC)cc12 [6,7-Dimethoxy-4-ethylcoumarin]",–,90
CC(=O)c1ccc2c(c1)N(CCCN1CCC(CCO)CC1)c1ccccc1S2 [Piperacetazine],90%,–
CO[C@@]1(NC(=O)Cc2cccs2)C(=O)N2C(C(=O)O)=C(COC(N)=O)CS[C@@H]21 [Cefoxitin sodium salt],109%,–
CO[C@@]1(NC(=O)Cc2cccs2)C(=O)N2C(C(=O)O)=C(COC(N)=O)CS[C@@H]21,85.2%,–
N#CC(=C(/N)Sc1ccccc1N)/C(C#N)=C(/N)Sc1ccccc1N,20.4%,–
NS(=O)(=O)c1cccc2c1c([N+](=O)[O-])cc1nc(O)c(O)nc12 [NBQX disodium],105%,–
NC(N)=NCc1cccc(I)c1 [m-Iodobenzylguanidine hemisulfate],108%,–
COc1cc2c(cc1OC)C(=O)C(CC1CCN(Cc3ccccc3)CC1)C2 (stereo not drawn) [Donepezil],101%,–
COc1cc2c(cc1OC)C(=O)C(CC1CCN(Cc3ccccc3)CC1)C2 (stereo not drawn),85.2%,–
CCCCC(CC)CN1CN(CC(CC)CCCC)CC(C)(N)C1 (stereo not drawn),79%,–
CCCCC(CC)CN1CN(CC(CC)CCCC)CC(C)(N)C1 (stereo not drawn) [Hexetidine],58.6%,–
CC(=O)NCCc1c[nH]c2ccc(O)cc12 [N-Acetyl-5-hydroxytryptamine],87.8%,–
COc1cc(OC)c(C(=O)CCCN2CCCC2)c(OC)c1 [Buflomedil hydrochloride],70.6%,–
COc1cc(OC)c(C(=O)CCCN2CCCC2)c(OC)c1,104 ± 26%,–
O=c1ccc2ccc(O)c(O)c2o1 [Daphnetin],91.7%,–
N#CC(c1ccc(Cl)cc1)c1c(Cl)cc(-n2ncc(=O)[nH]c2=O)cc1Cl (stereo not drawn) [Diclazuril],85.9 ± 3.5%,–

# 3 entries drawn at random from those above, as already listed:
SMILES,HMGB1-induced TNF-alpha production (compound concentration: 3 uM),HMGB1-induced TNF-alpha production [1] [%]
CO[C@@]1(NC(=O)Cc2cccs2)C(=O)N2C(C(=O)O)=C(COC(N)=O)CS[C@@H]21 [Cefoxitin sodium salt],109%,–
O=C(CCCN1CCC(O)(c2ccc(Br)cc2)CC1)c1ccc(F)cc1 [Bromperidol],45.1%,–
NS(=O)(=O)c1cccc2c1c([N+](=O)[O-])cc1nc(O)c(O)nc12 [NBQX disodium],105%,–

# Next part.

SMILES,HMGB1-induced TNF-alpha production (compound concentration: 3 uM),HMGB1-induced TNF-alpha production [1] [%]
O.O.O.O.O=C([O-])CC(O)(CC(=O)[O-])C(=O)[O-].[Li+].[Li+].[Li+],90%,–
Cc1cc2c(C(C)C)c(O)c(O)c(C=Nc3ccc(O)c(Cl)c3)c2c(O)c1-c1c(C)cc2c(C(C)C)c(O)c(O)c(C=Nc3ccc(O)c(Cl)c3)c2c1O,–,46.6
CCN1C(=O)NC(c2ccccc2)C1=O (stereo not drawn) [Ethotoin],119%,–
COc1ccccc1N1CCN(CC(O)COc2cccc3ccccc23)CC1 (stereo not drawn),84% and 73%,–
COc1ccccc1N1CCN(CC(O)COc2cccc3ccccc23)CC1 (stereo not drawn) [Naftopidil dihydrochloride],86.4 ± 6.1%,–
COc1ccccc1N1CCN(CC(O)COc2cccc3ccccc23)CC1 (stereo not drawn) [Naftopidil],76.4%,–
CN1CCCC(CC2c3ccccc3Sc3ccccc32)C1 (stereo not drawn) [Metixene hydrochloride],58.5%,–
CN1CCC(=C2c3ccccc3CC(=O)c3sccc32)CC1 [Ketotifen fumarate],87.7 ± 7.6%,–
CN1CCC(=C2c3ccccc3CC(=O)c3sccc32)CC1 [Ketotifen],85.1%,–
CN1CCC(=C2c3ccccc3CC(=O)c3sccc32)CC1,96.7 ± 13%,–
"CC1(C)O[C@@H]2[C@H](O1)[C@@H](CO)O[C@H]2n1ccc(=O)[nH]c1=O [2',3'-O-Isopropylideneuridine]",–,73.9
COC(=O)c1ccccc1O [Methyl salicylate],85.4%,–
COc1ccc2c(c1)N(C[C@H](C)CN(C)C)c1ccccc1S2 [Methotrimeprazine maleat salt],94.9%,–
CC[C@H](CC[C@@H](C)[C@H]1CC[C@H]2[C@@H]3CC=C4C[C@@H](O)CC[C@]4(C)[C@H]3CC[C@]12C)C(C)C [beta-Sitosterol],–,72.9
CCCN(CCC)C(=O)C(CCC(=O)O)NC(=O)c1ccccc1 (stereo not drawn),86%,–
CCCN(CCC)C(=O)C(CCC(=O)O)NC(=O)c1ccccc1 (stereo not drawn) [Proglumide],99.7 ± 17%,–
CN1CCc2ccccc2Cc2[nH]c3ccccc3c2CC1,104%,–
CC(C)(Sc1cc(C(C)(C)C)c(O)c(C(C)(C)C)c1)Sc1cc(C(C)(C)C)c(O)c(C(C)(C)C)c1,105%,–
CC(C)(Sc1cc(C(C)(C)C)c(O)c(C(C)(C)C)c1)Sc1cc(C(C)(C)C)c(O)c(C(C)(C)C)c1 [Probucol],67.5%,–
Nc1ccc(-c2nc3ccc(-c4nc5ccc(N)cc5[nH]4)cc3[nH]2)cc1,94.5%,–
CS(=O)(=O)CCNCc1ccc(-c2ccc3ncnc(Nc4ccc(OCc5cccc(F)c5)c(Cl)c4)c3c2)o1 [Lapatinib ditosylate],104%,–
CS(=O)(=O)CCNCc1ccc(-c2ccc3ncnc(Nc4ccc(OCc5cccc(F)c5)c(Cl)c4)c3c2)o1 [Lapatinib],73.7%,–
Cn1ccnc1S,101 ± 4.9%,–
Cn1ccnc1S [Methimazole],81.7 ± 11%,–

SMILES,HMGB1-induced TNF-alpha production (compound concentration: 3 uM),HMGB1-induced TNF-alpha production [1] [%]
Nc1c(Br)cc(Br)cc1CN[C@H]1CC[C@H](O)CC1,83.4%,–
Nc1c(Br)cc(Br)cc1CN[C@H]1CC[C@H](O)CC1 [Ambroxol hydrochloride],52.4%,–
Nc1c(Br)cc(Br)cc1CN[C@H]1CC[C@H](O)CC1 [Ambroxol],90.9%,–
Oc1ccc(Cl)c2cccnc12,71.6%,–
CC(=O)NO,77.5%,–
N[C@@H](Cn1ccc(=O)c(O)c1)C(=O)O [L-Mimosine from Koa hoale seeds],111%,–
N[C@@H](Cn1ccc(=O)c(O)c1)C(=O)O [L-Mimosine],–,64.8
CN(C)CC/C=C1\c2ccccc2CSc2ccccc21 [Dosulepin hydrochloride],74.3%,–
CN1CCCN=C1COC(=O)C(O)(c1ccccc1)C1CCCCC1 (stereo not drawn),73%,–
CC(C)(Oc1ccc(Cl)cc1)C(=O)O,77.4%,–
CC(C)(Oc1ccc(Cl)cc1)C(=O)O [Clofibric acid],79.5%,–
CCCCCCCCCCC[C@@H](C[C@@H]1OC(=O)[C@H]1CCCCCC)OC(=O)[C@H](CC(C)C)NC=O,88.1 ± 22%,–
S=C(Nc1ccccc1)Nc1nccs1 [1-Phenyl-3-(2-thiazolyl)-2-thiourea],110%,–
O=C1O[C@H](CO)[C@@H](O)[C@H](O)[C@H]1O,87.6%,–
CCC(=O)OCC(=O)[C@@]1(OC(=O)CC)[C@H](C)CC2C3C([C@@H](O)C[C@@]21C)[C@@]1(C)C=CC(=O)C=C1C[C@H]3Cl (stereo partly drawn),42.1%,–
CSc1ccc(C(=O)c2[nH]c(=O)[nH]c2C)cc1 [Enoximone],99.8%,–
CC(C)(S)[C@@H](N)C(=O)O,97.3%,–
CC(C)(S)[C@@H](N)C(=O)O [Penicillamine],115%,–
Cc1cc(C(=O)NNCc2ccccc2)no1 [Isocarboxazid],94.5%,–
CO[C@H]1C[C@H](O[C@H]2[C@H](C)[C@@H](O[C@@H]3O[C@H](C)C[C@H](N(C)C)[C@H]3OC(C)=O)[C@@H](C)C[C@@]3(CO3)C(=O)[C@H](C)[C@@H](OC(C)=O)[C@@H](C)[C@@H](C)OC(=O)[C@@H]2C)O[C@@H](C)[C@@H]1OC(C)=O [Troleandomycin],76.6 ± 13%,–
COc1ccc(-c2ccc(=N)n(CCCC(=O)O)n2)cc1,104%,–
COc1ccc(-c2ccc(=N)n(CCCC(=O)O)n2)cc1 [Gabazine],61.8%,–
CCCCCCCCCCCCCCCC(=O)NCCO [Palmitoylethanolamide],107%,–
CN1CCN(C2=Nc3cc(Cl)ccc3Nc3ccccc32)CC1 [Clozapine],72.6 ± 20%,–

# A different layout for part of the listing above.
SMILES | HMGB1-induced TNF-alpha production (compound concentration: 3 uM) | HMGB1-induced TNF-alpha production [1] [%]
O=C1O[C@H](CO)[C@@H](O)[C@H](O)[C@H]1O | 87.6% | –
CCC(=O)OCC(=O)[C@@]1(OC(=O)CC)[C@H](C)CC2C3C([C@@H](O)C[C@@]21C)[C@@]1(C)C=CC(=O)C=C1C[C@H]3Cl (stereo partly drawn) | 42.1% | –

# Later entries:

SMILES,HMGB1-induced TNF-alpha production (compound concentration: 3 uM),HMGB1-induced TNF-alpha production [1] [%]
CN1CCN(C2=Nc3cc(Cl)ccc3Nc3ccccc32)CC1,100%,–
C=CC[C@H](N)C(=O)O [L-allylglycine],95%,–
Brc1ccc([C@H]2CN3CCSC3=N2)cc1 [S(-)-p-Bromotetramisole oxalate],75.9%,–
C[C@@H]1NC(=O)NC1=O [Methylhydantoin-5-(L)],94.9%,–
COc1ccc(-c2coc3cc(OC4OC(CO)C(O)C(O)C4O)cc(O)c3c2=O)cc1 (stereo not drawn) [Sissotrine],–,71.2
O=c1cc(-c2cccc(O)c2)oc2cccc(O)c12,–,43.9
O=C(O)c1ccccc1Nc1ccccc1 [N-Phenylanthranilic acid],80.1%,–
N=C1C=CC(=C(c2ccc(N)cc2)c2ccc(N)cc2)C=C1,195%,–
O=c1c(O)c(-c2ccc(O)cc2)oc2ccc(O)cc12,–,67.8
Cc1ccc(-c2ncc(Cl)cc2-c2ccc(S(C)(=O)=O)cc2)cn1 [Etoricoxib],99.8 ± 2.1%,–
CCCc1c(OCCCCc2nnn[nH]2)ccc(C(C)=O)c1O,103%,–
CC1CCc2c(N3CCC(O)CC3)c(F)cc3c(=O)c(C(=O)O)cn1c23 (stereo not drawn) [Nadifloxacin],97.9 ± 22%,–
Clc1ccc(COC(Cn2ccnc2)c2ccc(Cl)cc2Cl)c(Cl)c1 (stereo not drawn) [Miconazole],54.9 ± 2%,–
Clc1ccc(COC(Cn2ccnc2)c2ccc(Cl)cc2Cl)c(Cl)c1 (stereo not drawn),75.5%,–
NCC=CC(=O)O (stereo in doubt) [cis-4-Aminocrotonic acid],91%,–
Cc1cc(=O)n(-c2ccccc2)n1C,73.1%,–
Cc1cc(=O)n(-c2ccccc2)n1C [Antipyrine],72%,–
CC(=O)[C@H]1CC[C@H]2[C@@H]3CC=C4C[C@@H](OS(=O)(=O)O)CC[C@]4(C)[C@H]3CC[C@]12C [Pregnenolone sulfate sodium],103%,–
NC12CC3CC(CC(C3)C1)C2 [Adamantamine fumarate],85.3%,–
NC12CC3CC(CC(C3)C1)C2,82.6%,–
NC12CC3CC(CC(C3)C1)C2 [Amantadine hydrochloride],84.7%,–

# Reference: the supplement of paper PMC3682954
